The source of these data is PubChem BioAssay AID2685 (National Center for Advancing Translational Sciences (NCATS), 2010).

Some of the results follow. Shown are side measurements of this screen, not its main read-out; they come without a call. The list favours compounds with an active or inconclusive main result. Potencies come from curve fits of mixed quality, noted in brackets.

The nature of this assay: qHTS Assay for Lipid Storage Modulators in Drosophila S3 Cells.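 As to cell number change: cells counted by Cell Tracker Red CMTPX staining in the red channel.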 The settings on record: BODIPY lipid droplet fluorescence, 18-24 h; for cell number change: measured here: cell count max response, cells fed with added oleic acid. The essentials: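 Laser-scanning cytometry quantifies lipid droplet accumulation (500–530 nm total intensity; droplet/cell object ratio) in oleic acid-fed (400 uM added) Drosophila S3 cells treated with a concentration series. 20 uM Triacsin C defined 100% inhibition.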
On the technique in general: In qHTS, concentration-response curves come from the screen itself.

The mark [1] stands for this setting: measured here: cell number channel AC50, cells fed with added oleic acid.
Where [2] appears, read: measured here: lipid fluorescence (Fed channel) AC50, cells fed with added oleic acid.

As to `CN1CCN(C(=O)Cn2c(C(F)(F)F)nc3ccccc32)CC1`, the cell number change was -99%. In addition, the AC50 under setting [1] is 29.1 µM [falling, single point]. On to `COc1ccc(N(C(=O)c2ccn[nH]2)C(C(=O)NC2CCCC2)c2ccc(F)cc2)cc1` (stereo not drawn), for which the cell number change is -12.7%. Besides, the concentration at half-maximal activity (AC50) under setting [2] is 29.1 µM [rising, single point]. On to `COc1ccc(Cn2nnnc2C(c2ccncc2)N2CCOCC2)cc1` (stereo not drawn), for which the cell number change is -176%. The half-maximal activity concentration (AC50) under setting [1] is 14.6 µM [falling, partial curve]. Under setting [2], the concentration at half-maximal activity (AC50) was 6.51 µM [falling, single point]. On to `Cc1cc(N2CCN(c3ccccn3)CC2)n2c(nc3ccccc32)c1C#N`, for which the cell number change was 14.1%. For the same molecule, the AC50 under setting [2] was 2.06 µM [rising, single point]. With `Cc1ccc(C)c(OCc2ccc(C(=O)Nc3ccc([N+](=O)[O-])cn3)o2)c1`, the cell number change was -0.251%. Also, the AC50 under setting [2] is 1.84 µM [rising, partial curve]. Consider `O=C(O)CCCCCn1c(SCC(=O)c2ccc(O)c(O)c2)nc2ccsc2c1=O`, for which the cell number change was 3.69%. For the same molecule, the AC50 under setting [1] was 0.366 µM [falling, partial curve, poor fit]. Further, under setting [2], the AC50 was 0.461 µM [falling, single point]. Take `Cn1nc(C(=O)NCCc2ccc(S(N)(=O)=O)cc2)c2c1-c1ccccc1S(=O)(=O)C2`: the cell number change is -6.75%. As for `NC(=O)c1cc2cc(Cl)ccc2o/c1=N/NC(=O)c1cccs1`, the concentration at half-maximal activity (AC50) under setting [2] is 0.517 µM [rising, full curve, poor fit].

`CCOC(=O)CNC(=O)CSc1nc(NCc2ccccc2)nc(N(C)C)n1`: the AC50 reads like this: under setting [1], 2.59 µM [rising, partial curve]; under setting [2], 3.66 µM [rising, partial curve].

Take `CCOC(=O)C1=C(COC(=O)c2cccs2)NC(=O)NC1C` (stereo not drawn): the cell number change turned out to be 3.03%. The AC50 under setting [1] was 0.0731 µM [falling, partial curve, poor fit]. On to `CC(C)c1ccc(NC(=O)c2ccc(NS(C)(=O)=O)cc2)cc1`, for which the cell number change was -3.49%.

In the case of `C=C(C)c1cccc(C(C)(C)NC(=O)Nc2ccccc2OCC)c1`, the AC50 by setting is: under setting [1], 1.3 µM [rising, partial curve]; under setting [2], 23.1 µM [falling, partial curve, poor fit]. In the case of `CC(OC(=O)c1ccccc1O)C(=O)Nc1ccc(Cl)cn1` (stereo not drawn), the cell number change was -7.78%. Further, the concentration at half-maximal activity (AC50) under setting [2] is 0.103 µM [rising, single point].

With `CCC(CO)NC(=O)c1ccc(-c2nn(C)c(=O)c3ccccc23)cc1` (stereo not drawn), the cell number change was 24.4%. Moreover, the AC50 under setting [2] was 29.1 µM [rising, single point]. For `COc1ccc(OCc2cn3c(C)cc(C)nc3n2)cc1`, the cell number change is 20.2%. Under setting [2], the half-maximal activity concentration (AC50) was 9.2 µM [rising, partial curve].

`CN1CCN(C(=O)c2cnn(-c3ccccc3)c2NC(=O)c2ccccc2F)CC1`: the half-maximal activity concentration (AC50) under setting [1] was 4.61 µM [falling, single point]. With `O=C(CSc1nnc(-c2c[nH]c3ccccc23)o1)N1CCCCC1`, the cell number change was 3.76%. Further, the half-maximal activity concentration (AC50) under setting [2] is 0.731 µM [rising, full curve, poor fit].

With `N#Cc1ccc(CN2CCN(C(=O)CNC(=O)Cc3cccc4ccccc34)CC2)cc1`, the cell number change was determined as 73.1%. Also, the AC50 under setting [1] was 1.84 µM [rising, partial curve].

Regarding `CCCCn1c(N)c(N(CC(C)C)C(=O)CCCSc2nncs2)c(=O)[nH]c1=O`, the cell number change is -22%. The AC50 under setting [2] was 5.8 µM [falling, partial curve, poor fit].

As for `CC1CCc2nn(CC(=O)Nc3c(F)cc(F)cc3Br)cc2C1` (stereo not drawn), the cell number change was found to be 22.8%. Also, under setting [2], the AC50 is 29.1 µM [rising, single point]. Consider `OC(COCc1ccccc1)CN1CCCC1` (stereo not drawn), for which the AC50 is, setting by setting: under setting [1], 6.51 µM [falling, single point]; under setting [2], 0.206 µM [falling, full curve, poor fit]. Consider `O=C1c2ccccc2C(=O)c2c1cccc2-n1nnc2ccccc21`, for which the cell number change amounted to 11.9%. For the same molecule, under setting [2], the AC50 is 0.517 µM [rising, full curve, poor fit].

For the molecule `Cc1cc(C(=O)N/N=C/c2cccc([N+](=O)[O-])c2)c(C)o1`, the cell number change is 47.1%. Moreover, under setting [1], the AC50 was 6.51 µM [rising, partial curve]. As for `CCCn1c(=O)c(F)cn(Cc2ccc(OC)c([N+](=O)[O-])c2)c1=O`, the cell number change amounted to 7.76%. For the molecule `COc1ccc(C(=O)C2CCCN(C(=O)Cn3nc(C)cc3C)C2)cc1F` (stereo not drawn), the cell number change was found to be 24.3%. Besides, the concentration at half-maximal activity (AC50) under setting [2] is 6.51 µM [rising, partial curve]. In the case of `CC1CSc2nnc(CCc3ccccc3)n21` (stereo not drawn), the cell number change was -3.09%. The AC50 under setting [2] is 29.1 µM [falling, single point]. Consider `COc1ccc(NC(=O)CC2C(=O)N(c3cccc(OC)c3)C(=O)N2C2CCCCC2)cc1` (stereo not drawn), for which the cell number change is -16.2%.

Turning to `Cn1c(-c2ccc(F)cc2)cnc1SCC(=O)N1CCCCC1`, the cell number change came to 20%. The concentration at half-maximal activity (AC50) under setting [2] is 32.6 µM [rising, single point]. On to `CCOc1ccc(NC(=S)NNC(=O)CC(C)O)cc1` (stereo not drawn), for which the cell number change is -34.4%. As for `O=C(Nc1cnn(Cc2ccc(F)cc2)c1)c1cc2nc(-c3ccco3)cc(C(F)(F)F)n2n1`, the cell number change turned out to be 1.05%. The half-maximal activity concentration (AC50) under setting [2] is 0.116 µM [falling, full curve, poor fit]. As for `COC(=O)c1ccc(NC(=O)c2ccccc2-c2ccccc2C(=O)O)cc1`, the cell number change is 4.31%. Besides, the half-maximal activity concentration (AC50) under setting [2] was 0.00411 µM [falling, full curve, poor fit]. `Cc1ccc(-c2csc(NC(=O)c3ccc(F)cc3)c2C(=O)O)cc1`: the cell number change was 9.91%. Further, the half-maximal activity concentration (AC50) under setting [2] was 1.84 µM [rising, full curve, poor fit]. Regarding `CCNS(=O)(=O)c1ccc(CCC(=O)NCc2cccnc2)cc1`, the cell number change came to 1.93%. Also, under setting [2], the concentration at half-maximal activity (AC50) was 6.51 µM [falling, single point].

With `CC(C)CN(C(=O)COC(=O)CSc1ccc([N+](=O)[O-])cc1)C1CCS(=O)(=O)C1` (stereo not drawn), the half-maximal activity concentration (AC50) under setting [1] was 6.51 µM [falling, single point] and the AC50 under setting [2] is 1.64 µM [rising, single point].

As to `O=[N+]([O-])c1ccccc1CN1CCN(Cc2ccc3ccccc3c2)CC1`, the cell number change was 48%. Besides, under setting [1], the AC50 was 1.84 µM [rising, partial curve]. Regarding `O=C(CCN1C(=O)/C(=C/c2ccccc2Cl)SC1=S)N1CCCC1`, the cell number change is -29.7%. The AC50 under setting [2] is 29.1 µM [falling, partial curve, poor fit]. Turning to `Clc1ccccc1Cn1nnc(-c2cccs2)n1`, the cell number change was -14.1%. The AC50 under setting [2] is 9.2 µM [rising, partial curve]. As to `COc1ccc(CC(=O)NCc2n[nH]c(=S)n2-c2ccccc2)cc1`, the cell number change is -37.8%. Also, the concentration at half-maximal activity (AC50) under setting [1] is 0.103 µM [falling, full curve, poor fit]. Further, under setting [2], the concentration at half-maximal activity (AC50) is 0.0731 µM [falling, full curve, poor fit]. As for `Cc1ccc(S(=O)(=O)NCCc2cc3ccc(C)c(C)c3[nH]c2=O)cc1`, the cell number change is -4.58%. In the case of `Cc1occc1C(=O)Nc1cccc(Cn2cccn2)c1`, the cell number change came out at 1.63%. In addition, under setting [2], the half-maximal activity concentration (AC50) is 16.4 µM [rising, single point]. On to `Cc1ccc(-n2c(CCC(=O)O)ccc2-c2cccs2)cc1`, for which the cell number change worked out at 14.2%. For the molecule `CCOC(=O)[C@H]1[C@H]2COc3ccc(C)cc3[C@@H]2N2C(=O)CN(Cc3ccc(Cl)cc3)C(=O)[C@@]12C`, the cell number change was determined as 2.89%. The AC50 under setting [2] was 0.259 µM [rising, full curve, poor fit].

On to `c1ccc(CCn2nnnc2CN2CCCc3ccccc32)cc1`, for which the cell number change is -26%. Under setting [1], the half-maximal activity concentration (AC50) is 0.00517 µM [falling, full curve, poor fit]. Besides, the AC50 under setting [2] is 4.11 µM [falling, full curve, poor fit]. In the case of `COc1ccc(-c2nc(-c3cccc(C)c3)[nH]c(=O)c2C#N)cc1`, the cell number change was -9.55%. The AC50 under setting [2] is 3.66 µM [falling, single point].

For the molecule `CCOc1ccc(-c2nnn(CC(=O)NCc3ccc4c(c3)OCO4)n2)cc1`, the cell number change was found to be 17.6%. Moreover, the AC50 under setting [2] was 10.3 µM [rising, partial curve, poor fit]. For the molecule `COc1ccc(C(=O)Nc2ccc3c(c2)OCO3)cc1OC`, the cell number change was -12.6%. Also, the half-maximal activity concentration (AC50) under setting [2] was 0.13 µM [rising, full curve, poor fit]. Take `Cc1ccc(N2C(=O)C3CCC(C)(C2=O)C3(C)C)cc1` (stereo not drawn): the cell number change was determined as 26.5%. Consider `COc1ccc(C(=O)NCCc2ccc(F)cc2)cc1OC`, for which the cell number change was -15.3%. Moreover, the AC50 under setting [2] was 2.31 µM [rising, single point]. As to `CCCCc1nnc(NC(=O)CCc2ccccc2)s1`, the cell number change was 12.3%. Regarding `Cc1c(C(=O)OCc2ccc(F)cc2)sc2nc3n(c(=O)c12)CCC3`, the AC50 runs as follows: under setting [1], 0.0731 µM [falling, full curve, poor fit]; under setting [2], 0.082 µM [falling, full curve, poor fit]. Regarding `Cc1c(NC(=O)C(C)Sc2nc3ccccc3c(=O)n2CCO)c(=O)n(-c2ccccc2)n1C` (stereo not drawn), the cell number change is -12.3%. Turning to `CN(C)CCCN(C(=O)/C=C/c1cccs1)c1nc2c(F)cccc2s1`, the cell number change is -11.4%. In addition, under setting [1], the concentration at half-maximal activity (AC50) was 0.00517 µM [falling, full curve, poor fit]. Turning to `CCOc1ccc(C(=O)N[C@H](C(=O)Nc2ccccc2OC)C(C)C)cc1`, the cell number change turned out to be 37.4%. The half-maximal activity concentration (AC50) under setting [1] is 6.51 µM [rising, full curve, poor fit]. With `Fc1ccccc1OCCn1c(=S)[nH]c2ccccc21`, the cell number change is -25.5%. Under setting [1], the AC50 is 0.291 µM [falling, full curve, poor fit]. Regarding `CCC(NC(=O)COC(=O)C1CC2CCCC(C1)C2=O)c1ccc(Br)cc1` (stereo not drawn), the cell number change was -22%.

Consider `CCOC(=O)c1cnn(-c2ccccc2)c1-n1cccc1C(=O)C(=O)Nc1ccccc1C(F)(F)F`, for which the cell number change is -5.35%. For the same molecule, the AC50 under setting [2] was 29.1 µM [falling, single point]. On to `CCCCN(C(=O)c1ccc(-c2ccc(Cl)cc2)o1)c1c(N)n(CC(C)C)c(=O)[nH]c1=O`, for which the cell number change was -54.6%. Moreover, the AC50 under setting [1] was 13 µM [falling, partial curve]. On to `CC(=O)Oc1ccc2c(c1)C(=O)c1ccccc1CO2`, for which the cell number change was found to be 5.45%. Under setting [1], the AC50 was 0.116 µM [falling, full curve, poor fit]. Under setting [2], the AC50 was 2.06 µM [falling, partial curve]. Regarding `O=c1[nH]c2ccc(NC(=S)Nc3ccc(Cl)cc3)cc2[nH]1`, the cell number change was -41.4%. Besides, under setting [1], the concentration at half-maximal activity (AC50) was 29.1 µM [falling, single point]. Take `CC(=O)N1C=Cc2c(c(C)c3c([nH]c4ccccc43)c2C)C1`: the cell number change was -40.9%. As to `CC1CN(CN2C(=O)c3ccccc3C2=O)CC(C)O1` (stereo not drawn), the cell number change was -51.6%. Also, under setting [1], the concentration at half-maximal activity (AC50) was 16.4 µM [falling, single point].

A word on the AC50: it is the concentration at which the activity in the assay is half-maximal. Read a high AC50 as activity only at high concentration.
